In article PMC3897705:
No constants are given. Whether binding was seen depends on the method and setting. In cells and extracts the contact can be indirect. Some binding calls cover weakened binding; strength is not graded here.

Sequences of proteins named here, by UniProt entry; tags and fusion partners are left off. Residues count along the entry.
UniProt P21462: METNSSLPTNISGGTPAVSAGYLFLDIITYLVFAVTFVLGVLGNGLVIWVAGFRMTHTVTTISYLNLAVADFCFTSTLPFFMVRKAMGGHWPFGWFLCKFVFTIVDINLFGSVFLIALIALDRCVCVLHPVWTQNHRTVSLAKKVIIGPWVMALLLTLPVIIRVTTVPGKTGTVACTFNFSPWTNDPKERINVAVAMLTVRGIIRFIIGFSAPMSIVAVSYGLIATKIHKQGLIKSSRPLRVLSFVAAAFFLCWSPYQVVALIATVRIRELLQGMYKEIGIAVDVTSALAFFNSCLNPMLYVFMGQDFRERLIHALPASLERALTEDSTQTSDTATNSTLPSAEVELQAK
UniProt P25090: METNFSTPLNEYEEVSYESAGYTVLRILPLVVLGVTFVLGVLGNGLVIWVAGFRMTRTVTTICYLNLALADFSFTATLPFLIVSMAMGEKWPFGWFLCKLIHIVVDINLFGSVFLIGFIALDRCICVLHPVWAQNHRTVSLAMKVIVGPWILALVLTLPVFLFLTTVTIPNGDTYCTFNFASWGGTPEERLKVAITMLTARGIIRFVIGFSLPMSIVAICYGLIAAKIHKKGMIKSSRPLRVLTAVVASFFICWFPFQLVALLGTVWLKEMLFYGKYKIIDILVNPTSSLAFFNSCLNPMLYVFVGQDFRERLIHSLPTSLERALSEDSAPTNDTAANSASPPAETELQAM
UniProt Q03405, residues 23-305: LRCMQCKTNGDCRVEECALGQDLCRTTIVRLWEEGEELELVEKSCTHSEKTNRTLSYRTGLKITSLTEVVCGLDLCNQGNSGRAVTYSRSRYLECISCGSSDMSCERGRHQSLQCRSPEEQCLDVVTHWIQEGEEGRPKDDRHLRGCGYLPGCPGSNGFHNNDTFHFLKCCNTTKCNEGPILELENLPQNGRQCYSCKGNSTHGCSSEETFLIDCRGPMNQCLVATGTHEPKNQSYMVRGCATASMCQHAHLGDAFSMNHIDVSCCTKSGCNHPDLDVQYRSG

Experiments:
Assay in all cases: co-IP; Triton X-100-insoluble residue of the cells solubilized in RIPA buffer; 0.5 mg protein incubated 2 h at 4°C with 30 µg/ml anti-FPR1, anti-FPR3 (rabbit polyclonal) or anti-FPR2 (mouse monoclonal) antibody, protein A-Sepharose; Western blot with anti-uPAR antibodies (R2 or 399); nonimmune immunoglobulins as control
FPR-like2 (FPR3) = molecular target: T1, FPR-like2 (FPR3) (UniProt P25089)
T1 sequence: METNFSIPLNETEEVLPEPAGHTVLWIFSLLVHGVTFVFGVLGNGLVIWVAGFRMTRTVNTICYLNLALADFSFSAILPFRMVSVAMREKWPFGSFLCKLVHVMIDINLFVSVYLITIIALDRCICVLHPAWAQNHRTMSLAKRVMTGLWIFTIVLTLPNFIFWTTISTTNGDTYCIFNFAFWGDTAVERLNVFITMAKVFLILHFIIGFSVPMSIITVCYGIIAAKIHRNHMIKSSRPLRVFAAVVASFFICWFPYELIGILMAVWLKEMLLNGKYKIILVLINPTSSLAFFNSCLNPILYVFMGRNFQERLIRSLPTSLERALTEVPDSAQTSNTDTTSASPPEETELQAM

[1] = molecular target: endogenous FPR1 of HEK-293 cells (human (endogenous in HEK-293)) (UniProt P21462)
FPR-like 1 (FPR2) = FPR-like 1 (FPR2) (UniProt P25090)
[2] = molecular target: high-affinity N-formyl-peptide receptor (FPR1), transfected (UniProt P21462)

Measured: binding

urokinase-type plasminogen activator receptor (uPAR) (from UniProt Q03405 23-305)
binds: FPR-like2 (FPR3) | [1] | FPR-like 1 (FPR2) | [2]
